Reference: patent publication US12428442B2, “Compounds, compositions and methods for synthesis” (WAVE LIFE SCIENCES LTD., priority 2017, dated 2025)

Assay: Use of chiral auxiliaries / phosphoramidite monomers in oligonucleotide synthesis (SOCICS or DPSE cycle), analysed by RP-HPLC/UPLC (Table 7)
Details: dC dimer; cycle SOSICS; activator CMPT

Compound | Dimer Conv. % [%] | Dimer HPLC Area % dC [%] | Dimer HPLC Area % dCC (PO) [%] | Dimer HPLC Area % dCC (Rp) [%] | Dimer HPLC Area % dCC (Sp) [%] | Dimer Rp/Sp | Dimer d.r.
CC(C)C(O)(C(C)C)[C@@H]1CCCN1 [WV-CA-069-S] | 19.7 | 65.28 | 1.78 | 7.01 | 22.77 | Sp | 76.46
CN[C@H]1CCCC[C@]1(C)O [WV-CA-070-S] | 95.0 | 2.61 | 1.76 | 90.48 | 5.16 | Rp | 94.60
CN[C@@H](C1CCCCC1)C1(O)CCCC1 [WV-CA-071S] | 5.0 | 74.21 | 1.93 | 5.18 | 0.60 | Rp | 89.58
OC1([C@@H]2CCCN2)CCc2ccccc21 (stereo partly shown) [WV-CA-074-M] | 74.6 | 13.90 | 2.63 | 1.90 | 76.00 | Sp | 97.56
C[C@@](O)(C1CCCC1)[C@@H]1CCCN1 [WV-CA-078] | 83.8 | 8.79 | 1.51 | 1.13 | 87.08 | Sp | 98.72
COc1ccc(C[C@@](C)(O)[C@@H]2CCCN2)cc1 [WV-CA-079] | 74.9 | 14.42 | 1.49 | 0.84 | 82.71 | Sp | 98.99
Cc1ccc([C@@](C)(O)[C@@H]2CCCN2)cc1 [WV-CA-080] | 72.5 | 15.65 | 1.46 | 0.31 | 79.53 | Sp | 99.61
C[C@@](O)(c1cccc(F)c1)[C@@H]1CCCN1 [WV-CA-081] | 66.6 | 19.55 | 1.51 | 0.31 | 74.97 | Sp | 99.59
C[C@@](O)(c1cc(F)cc(F)c1)[C@@H]1CCCN1 [WV-CA-082] | 60.8 | 23.24 | 1.44 | 0.72 | 68.93 | Sp | 98.96
COc1ccc([C@@](C)(O)[C@@H]2CCCN2)c(OC)c1 [WV-CA-083] | 44.1 | 32.23 | 1.63 | 0.00 | 48.58 | Sp | 100.00
CC(C)(O)[C@@H]1CCCN1 [WV-CA-090] | 86.1 | 7.45 | 1.68 | 3.06 | 86.04 | Sp | 96.57

Same assay, conditions: no dimer cycle, activator or HPLC data printed

Compound | Dimer Rp/Sp
CN[C@H]1CCCC[C@@]1(C)O [WV-CA-070] | Sp
O[C@]1([C@@H]2CCCN2)CCc2ccccc21 [WV-CA-074-R] | Sp
O[C@@]1([C@@H]2CCCN2)CCc2ccccc21 [WV-CA-074-S] | Sp
CC(C)N[C@H]1CCCC[C@]1(C)O [WV-CA-075-S] | Sp
CC(C)(C)[Si](C)(C)Oc1ccccc1C[C@@H](O)[C@@H]1CCCN1 [WV-CA-076] | Sp
